Data as given in PubChem BioAssay AID493246 (Drosophila RNAi Screening Center, 2011).
In all, the deposit lists about 21,000 reagents; below is an unselected part of those with a known target gene and a result. In the full data, 429 (2%) were called active. 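Values are raw and not normalised between plates; calls rest on per-plate z-scores that were not deposited.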 The numbers tell different reagents against one gene apart. A plus sign joins genes that one reagent is predicted to hit. The record does not give: the amount of reagent, the time to read-out.

Aim: 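Identify essential fly genes by loss of cell viability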 (primary screen)
Cell system: Drosophila Kc and S2R+ cells
Reagent: long dsRNA against Drosophila genes
Detection: 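Raw, unnormalised count of remaining cells in each well; per-plate z-scores of cell number underlie the calls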
Reading the numbers: Kc cell number and S2R+ cell number: higher = more cells remaining
Active means: 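Active when the per-plate z-score of cell number is 3 or more in the direction of fewer cells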

| Target gene | reagent no. | Kc cell number, rep 1 | Kc cell number, rep 2 | S2R+ cell number, rep 1 | S2R+ cell number, rep 2 | activity call |
| --- | --- | --- | --- | --- | --- | --- |
| Gos28 (Golgi SNARE, 28 kDa) | 1 | 1.27e6 | 1.39e6 | 1.03e6 | 1.09e6 | inactive |
| CG13998 | 1 | 1.79e6 | 1.75e6 | 1.27e6 | 1.39e6 | inactive |
| CG17242 | 1 | 1.62e6 | 1.67e6 | 1.06e6 | 1.13e6 | inactive |
| numb | 1 | 1.26e6 | 1.32e6 | 1.25e6 | 1.18e6 | inactive |
| Hen1 (Hen1 methyltransferase) | 1 | 1.43e6 | 1.52e6 | 1.07e6 | 1.20e6 | inactive |
| Hen1 (Hen1 methyltransferase) | 2 | 1.70e6 | 1.63e6 | 1.39e6 | 1.55e6 | inactive |
| CG33060 | 1 | 1.30e6 | 1.46e6 | 1.23e6 | 1.28e6 | inactive |
| CG17959 | 1 | 1.52e6 | 1.46e6 | 9.69e5 | 1.09e6 | inactive |
| CG13023 | 1 | 1.58e6 | 1.66e6 | 1.19e6 | 1.36e6 | inactive |
| CG13023 | 2 | 1.42e6 | 1.55e6 | 1.33e6 | 1.31e6 | inactive |
| CG13436 | 1 | 1.60e6 | 1.39e6 | 1.02e6 | 1.38e6 | inactive |
| Fife | 1 | 1.26e6 | 1.39e6 | 1.10e6 | 1.02e6 | inactive |
| Srp9 (Signal recognition particle 9) | 1 | 1.47e6 | 1.56e6 | 1.18e6 | 1.25e6 | inactive |
| CG11458 | 1 | 1.55e6 | 1.61e6 | 1.37e6 | 1.42e6 | inactive |
| eIF4H2 (eukaryotic translation initiation factor 4H2) | 1 | 5.91e5 | – | 8.43e5 | – | inactive |
| Pdp1 (PAR-domain protein 1) | 1 | 9.79e5 | 8.25e5 | 6.17e5 | 7.04e5 | active |
| Pdp1 (PAR-domain protein 1) | 2 | 8.14e5 | 6.76e5 | 5.68e5 | 8.56e5 | active |
| Pdp1 (PAR-domain protein 1) | 3 | 1.49e6 | 1.44e6 | 1.10e6 | 1.09e6 | inactive |
| RagC-D (Ras-related GTP binding C/D) | 1 | 1.60e6 | 1.72e6 | 1.13e6 | 1.23e6 | inactive |
| XRCC1 | 1 | 5.67e5 | – | 8.66e5 | – | inactive |
| sev (sevenless) | 1 | 1.55e6 | 1.45e6 | 1.06e6 | 1.17e6 | inactive |
| CG13731 | 1 | 1.47e6 | 1.53e6 | 1.29e6 | 1.48e6 | inactive |
| Ir7a (Ionotropic receptor 7a) | 1 | 1.52e6 | 1.47e6 | 1.07e6 | 1.30e6 | inactive |
| Prosalpha4 (Proteasome alpha4 subunit) | 1 | 1.46e6 | 1.52e6 | 9.55e5 | 1.13e6 | inactive |
| CG30470 (retired record) | 1 | 1.43e6 | 1.47e6 | 5.94e5 | 7.40e5 | active |
| CG30470 (retired record) | 2 | 1.62e6 | 1.70e6 | 1.36e6 | 1.54e6 | inactive |
| CG30470 (retired record) | 3 | 1.61e6 | 1.67e6 | 1.33e6 | 1.50e6 | inactive |
| CG30470 (retired record) | 4 | 1.62e6 | 1.63e6 | 1.32e6 | 1.50e6 | inactive |
| CG10694 | 1 | 1.51e6 | 1.57e6 | 1.00e6 | 1.10e6 | inactive |
| eag (ether a go-go) | 1 | 1.35e6 | 1.70e6 | 1.10e6 | 1.22e6 | inactive |
| eag (ether a go-go) | 2 | 1.57e6 | 1.53e6 | 1.07e6 | 1.20e6 | inactive |
| Nost (Nostrin) | 1 | 1.60e6 | 1.64e6 | 1.16e6 | 1.23e6 | inactive |
| Nost (Nostrin) | 2 | 1.59e6 | 1.62e6 | 1.14e6 | 1.23e6 | inactive |
| Hap40 (Huntingtin-associated protein 40 kDa) | 1 | 5.67e5 | – | 8.37e5 | – | inactive |
| CG12617 | 1 | 1.50e6 | 1.62e6 | 1.30e6 | 3.28e5 | inactive |
| CG31663 | 1 | 1.53e6 | 1.59e6 | 1.10e6 | 1.25e6 | inactive |
| CG31663 | 2 | 1.44e6 | 1.40e6 | 1.18e6 | 1.28e6 | inactive |
| CG31663 | 3 | 1.45e6 | 1.54e6 | 1.03e6 | 1.15e6 | inactive |
| PolE2 (DNA polymerase epsilon subunit 2) | 1 | 1.34e6 | 1.44e6 | 1.18e6 | 1.10e6 | inactive |
| CG4476 | 1 | 1.61e6 | 1.57e6 | 1.32e6 | 8.92e5 | inactive |
| ScsbetaG (Succinyl-coenzyme A synthetase beta subunit, GDP-forming) | 1 | 1.53e6 | 1.50e6 | 1.16e6 | 1.24e6 | inactive |
| nsl1 (non-specific lethal 1) | 1 | 1.16e6 | 1.27e6 | 9.33e5 | 1.03e6 | inactive |
| kirre (kin of irre) | 1 | 1.45e6 | 1.44e6 | 1.08e6 | 1.16e6 | inactive |
| Rbbp5 (Retinoblastoma binding protein 5) | 1 | 1.75e6 | 1.82e6 | 1.27e6 | 1.39e6 | inactive |
| CG7924 | 1 | 1.47e6 | 1.56e6 | 1.24e6 | 1.26e6 | inactive |
| Phax (Phosphorylated adaptor for RNA export) | 1 | 1.56e6 | 1.67e6 | 1.24e6 | 1.33e6 | inactive |
| CG10185 | 1 | 1.26e6 | 1.33e6 | 1.19e6 | 1.32e6 | inactive |
| r + CG13012 | 1 | 1.47e6 | 1.49e6 | 1.08e6 | 1.11e6 | inactive |
| CG14879 | 1 | 1.25e6 | 1.26e6 | 1.16e6 | 1.26e6 | inactive |
| PAN2 (Poly(A)-binding protein-dependent poly(A) ribonuclease 2) | 1 | 1.40e6 | 1.43e6 | 1.25e6 | 1.26e6 | inactive |
| CR15280 (pseudo) | 1 | 1.47e6 | 1.57e6 | 1.24e6 | 1.38e6 | inactive |
| CG18063 | 1 | 1.56e6 | 1.60e6 | 1.28e6 | 1.44e6 | inactive |
| Usp15-31 (Ubiquitin specific protease 15/31) | 1 | 1.61e6 | 1.71e6 | 1.02e6 | 1.34e6 | inactive |
| Usp15-31 (Ubiquitin specific protease 15/31) | 2 | 1.39e6 | 1.45e6 | 1.13e6 | 1.37e6 | inactive |
| Pus7 (Pseudouridine synthase 7) | 1 | 1.29e6 | 1.33e6 | 1.12e6 | 1.22e6 | inactive |
| br (broad) | 1 | 1.47e6 | 1.65e6 | 1.10e6 | 1.15e6 | inactive |
| br (broad) | 2 | 1.46e6 | 1.41e6 | 9.98e5 | 1.07e6 | inactive |
| br (broad) | 3 | 1.54e6 | 1.43e6 | 7.57e5 | 8.42e5 | inactive |
| br (broad) | 4 | 1.55e6 | 1.43e6 | 8.01e5 | 8.22e5 | inactive |

Active calls, among the entries above:
| Target gene | reagent no. | Kc cell number, rep 1 | Kc cell number, rep 2 | S2R+ cell number, rep 1 | S2R+ cell number, rep 2 | activity call |
| --- | --- | --- | --- | --- | --- | --- |
| Pdp1 (PAR-domain protein 1) | 1 | 9.79e5 | 8.25e5 | 6.17e5 | 7.04e5 | active |
| Pdp1 (PAR-domain protein 1) | 2 | 8.14e5 | 6.76e5 | 5.68e5 | 8.56e5 | active |
| CG30470 (retired record) | 1 | 1.43e6 | 1.47e6 | 5.94e5 | 7.40e5 | active |
